Data as given in patent US3950393A, “Aminobenzyl-amides and salts thereof” (Boehringer Ingelheim GmbH, priority 1973, dated 1976).
At least one read-out could not be matched to a standard name with certainty.

Test system: white mice
Assay type: in vivo
Settings: single application; 5 white mice
Experimental: The acute toxicity of the test compounds was determined after a single application of 1000 or 2000 mgm/kg p.o., respectively, to 5 white mice each.

## 2-amino-3-bromo-N-cyclohexyl-N-ethyl-3-fluoro-benzylamine hydrochloride
  Acute toxicity: > 1000 mgm/kg p.o.
